Earlier results in Sander's compilation of Henry's law constants.

Assay: Henry solubility constant Hcp at 298.15 K (mol/(m3 Pa))
Conditions: reference: Brockbank (2013); cited value

- Henry solubility constant Hcp: 0.27
Compound: CCCCCCCCCO [1-nonanol]
